Data on two substances can be found in paper PMC4935975, “A neomorphic cancer cell-specific role of MAGE-A4 in trans-lesion synthesis” (Nature Communications, 2016).

Protein sequences, listed by entry. Tags and fused reporters are not part of them. Lines headed by an entry give the natural chain unless they say otherwise; changes in a name come on top. Chains listed by the source or under a name are the forms on record and can include a tag or linker.
UniProt Q9NS91: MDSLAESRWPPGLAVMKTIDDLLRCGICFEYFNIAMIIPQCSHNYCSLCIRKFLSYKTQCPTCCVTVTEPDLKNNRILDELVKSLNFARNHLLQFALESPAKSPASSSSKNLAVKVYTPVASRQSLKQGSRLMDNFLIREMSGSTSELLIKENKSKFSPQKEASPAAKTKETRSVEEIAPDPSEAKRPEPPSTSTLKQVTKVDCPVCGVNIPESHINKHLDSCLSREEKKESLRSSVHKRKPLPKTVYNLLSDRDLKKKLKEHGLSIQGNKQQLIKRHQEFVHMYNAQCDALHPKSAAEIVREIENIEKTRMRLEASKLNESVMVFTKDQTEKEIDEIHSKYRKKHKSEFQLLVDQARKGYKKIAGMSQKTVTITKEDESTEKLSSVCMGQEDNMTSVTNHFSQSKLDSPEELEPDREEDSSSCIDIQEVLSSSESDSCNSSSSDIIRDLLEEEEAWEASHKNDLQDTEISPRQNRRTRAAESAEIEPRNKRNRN
HA–RAD18 Δ402-444 (Q9NS91, form named): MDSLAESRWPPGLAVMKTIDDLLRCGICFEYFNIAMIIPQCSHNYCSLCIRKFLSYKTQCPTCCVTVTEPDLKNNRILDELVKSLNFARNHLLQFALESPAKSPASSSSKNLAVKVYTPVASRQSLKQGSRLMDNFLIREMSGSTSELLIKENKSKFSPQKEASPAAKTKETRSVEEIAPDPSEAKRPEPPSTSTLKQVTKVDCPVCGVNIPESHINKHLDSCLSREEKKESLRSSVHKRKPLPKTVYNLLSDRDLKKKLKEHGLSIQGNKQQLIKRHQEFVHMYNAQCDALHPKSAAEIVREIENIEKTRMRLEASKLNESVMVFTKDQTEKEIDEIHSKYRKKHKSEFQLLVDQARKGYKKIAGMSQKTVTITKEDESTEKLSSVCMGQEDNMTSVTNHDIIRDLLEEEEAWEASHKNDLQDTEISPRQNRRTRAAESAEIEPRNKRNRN
UniProt P43358: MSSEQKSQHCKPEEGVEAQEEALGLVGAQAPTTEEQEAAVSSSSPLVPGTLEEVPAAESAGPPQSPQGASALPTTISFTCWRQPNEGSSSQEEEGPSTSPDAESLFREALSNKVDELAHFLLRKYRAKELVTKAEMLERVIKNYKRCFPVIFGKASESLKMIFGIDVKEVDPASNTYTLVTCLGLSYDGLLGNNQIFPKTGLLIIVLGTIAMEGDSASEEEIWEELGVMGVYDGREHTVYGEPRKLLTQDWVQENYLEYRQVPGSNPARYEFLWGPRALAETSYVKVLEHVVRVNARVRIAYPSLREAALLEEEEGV
UniProt P12004: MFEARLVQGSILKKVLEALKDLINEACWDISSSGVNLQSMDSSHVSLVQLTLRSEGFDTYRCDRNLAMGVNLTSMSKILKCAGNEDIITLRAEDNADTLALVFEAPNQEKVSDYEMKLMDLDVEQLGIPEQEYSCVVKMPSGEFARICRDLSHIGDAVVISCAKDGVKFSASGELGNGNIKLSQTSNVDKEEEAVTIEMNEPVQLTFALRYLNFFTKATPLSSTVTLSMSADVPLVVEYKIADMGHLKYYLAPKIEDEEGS

Results are given in words; binding and its absence hold for the method and conditions named. Binding seen in cells or lysates may run through a third protein. These calls come from enrichment with a bait or labelling near it, and not all partners need be listed.

The target in experiment [1] is HA–RAD18 wild type (UniProt Q9NS91). Kind of experiment: affinity purification with mass spectrometry; label-free APMS; HA–RAD18 WT or Δ402-444 expressed in H1299 cells, undamaged or treated with ultraviolet or camptothecin; CSK lysate digested with DNase I and sonicated; anti-HA magnetic beads, 4 °C, 3 h; SAINT scoring.
The target of experiment [2] is HA–RAD18 Δ402-444 (UniProt Q9NS91). The description is as above.

For the substance “melanoma antigen-A4 (MAGE-A4) (from UniProt P43358 1-317)”, the binding entry in experiment [1] and in experiment [2] was “binds” in each case.
For the substance “proliferating cell nuclear antigen (PCNA) (from UniProt P12004 1-261)”, the binding result in experiment [1] was “binds”.
